In article PMC7919836:
Results are given in words; binding and its absence hold for the method and conditions named. Binding seen in cells or lysates may run through a third protein. Some binding calls cover weakened binding; strength is not graded here. Tags and fused reporters may be left off the sequences shown.

Protein sequences, listed by entry. Tags and fused reporters are not part of them.
UniProt P35125: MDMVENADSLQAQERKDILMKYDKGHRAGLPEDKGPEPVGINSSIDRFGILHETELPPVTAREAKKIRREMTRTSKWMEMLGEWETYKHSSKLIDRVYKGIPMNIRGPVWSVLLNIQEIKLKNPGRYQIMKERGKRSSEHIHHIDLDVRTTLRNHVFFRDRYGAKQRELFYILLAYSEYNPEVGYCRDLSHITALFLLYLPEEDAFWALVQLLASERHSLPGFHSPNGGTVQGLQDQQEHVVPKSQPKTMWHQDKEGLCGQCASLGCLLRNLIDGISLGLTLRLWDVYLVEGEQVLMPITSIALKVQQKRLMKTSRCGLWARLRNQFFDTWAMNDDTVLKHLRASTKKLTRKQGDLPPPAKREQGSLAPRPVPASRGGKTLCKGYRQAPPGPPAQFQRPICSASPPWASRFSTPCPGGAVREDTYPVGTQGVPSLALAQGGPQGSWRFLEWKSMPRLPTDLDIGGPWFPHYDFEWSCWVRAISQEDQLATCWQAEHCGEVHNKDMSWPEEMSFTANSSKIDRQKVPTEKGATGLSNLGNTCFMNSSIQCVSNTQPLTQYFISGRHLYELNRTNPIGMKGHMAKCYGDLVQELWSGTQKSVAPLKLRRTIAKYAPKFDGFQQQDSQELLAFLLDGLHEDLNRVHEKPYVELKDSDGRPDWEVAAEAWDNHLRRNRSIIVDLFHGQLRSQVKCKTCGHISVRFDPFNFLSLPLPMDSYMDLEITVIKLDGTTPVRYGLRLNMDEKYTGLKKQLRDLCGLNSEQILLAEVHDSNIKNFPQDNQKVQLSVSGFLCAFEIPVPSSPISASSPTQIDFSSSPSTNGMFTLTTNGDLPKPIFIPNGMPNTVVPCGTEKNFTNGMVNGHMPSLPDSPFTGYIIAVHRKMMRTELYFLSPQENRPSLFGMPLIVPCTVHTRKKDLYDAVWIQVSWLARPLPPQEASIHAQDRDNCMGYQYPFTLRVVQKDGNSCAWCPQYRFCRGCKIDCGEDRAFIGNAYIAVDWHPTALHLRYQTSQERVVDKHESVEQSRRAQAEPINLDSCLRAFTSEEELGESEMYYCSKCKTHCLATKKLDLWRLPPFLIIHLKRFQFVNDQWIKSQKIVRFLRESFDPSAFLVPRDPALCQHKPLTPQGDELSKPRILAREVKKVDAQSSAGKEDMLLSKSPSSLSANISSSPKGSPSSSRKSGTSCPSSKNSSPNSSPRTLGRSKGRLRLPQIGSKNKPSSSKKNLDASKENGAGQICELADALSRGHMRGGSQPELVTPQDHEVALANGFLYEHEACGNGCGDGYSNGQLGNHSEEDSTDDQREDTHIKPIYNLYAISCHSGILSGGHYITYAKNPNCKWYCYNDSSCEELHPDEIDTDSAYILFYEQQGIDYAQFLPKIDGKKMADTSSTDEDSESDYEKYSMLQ

How the values were obtained:
Assay in all cases: pull-down; SFB-tagged DUB (or OTUD6A full length or truncated) and MYC-tagged Aurora-A (full length or truncated) co-transfected into HEK293T; lysis in NETN buffer; DUB pulled down with S-protein beads at 4 °C overnight; Aurora-A blotted with MYC antibody
[1] = target: T1, SFB-tagged USP44 (human) (UniProt Q9H0E7)
T1 sequence: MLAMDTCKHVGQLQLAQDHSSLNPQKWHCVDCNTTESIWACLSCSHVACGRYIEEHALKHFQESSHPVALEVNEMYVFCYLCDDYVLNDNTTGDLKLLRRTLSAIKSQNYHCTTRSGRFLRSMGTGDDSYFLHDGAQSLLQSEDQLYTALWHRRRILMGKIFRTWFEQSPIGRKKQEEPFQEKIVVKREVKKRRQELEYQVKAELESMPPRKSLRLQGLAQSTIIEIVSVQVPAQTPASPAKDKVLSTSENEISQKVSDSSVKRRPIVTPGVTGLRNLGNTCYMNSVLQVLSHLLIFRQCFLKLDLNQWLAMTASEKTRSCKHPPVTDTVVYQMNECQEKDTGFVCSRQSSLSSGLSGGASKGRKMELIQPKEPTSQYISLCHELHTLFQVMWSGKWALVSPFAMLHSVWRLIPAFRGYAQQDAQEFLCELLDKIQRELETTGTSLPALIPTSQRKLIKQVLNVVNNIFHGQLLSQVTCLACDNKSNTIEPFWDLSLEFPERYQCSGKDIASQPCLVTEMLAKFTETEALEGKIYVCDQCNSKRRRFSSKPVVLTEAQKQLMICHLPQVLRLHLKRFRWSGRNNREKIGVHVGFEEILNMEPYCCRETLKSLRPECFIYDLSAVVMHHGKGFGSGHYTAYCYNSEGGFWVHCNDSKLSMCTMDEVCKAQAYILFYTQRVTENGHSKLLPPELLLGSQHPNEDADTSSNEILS

[2] = target: T2, SFB-tagged OTUD1 (human) (UniProt Q5VV17)
T2 sequence: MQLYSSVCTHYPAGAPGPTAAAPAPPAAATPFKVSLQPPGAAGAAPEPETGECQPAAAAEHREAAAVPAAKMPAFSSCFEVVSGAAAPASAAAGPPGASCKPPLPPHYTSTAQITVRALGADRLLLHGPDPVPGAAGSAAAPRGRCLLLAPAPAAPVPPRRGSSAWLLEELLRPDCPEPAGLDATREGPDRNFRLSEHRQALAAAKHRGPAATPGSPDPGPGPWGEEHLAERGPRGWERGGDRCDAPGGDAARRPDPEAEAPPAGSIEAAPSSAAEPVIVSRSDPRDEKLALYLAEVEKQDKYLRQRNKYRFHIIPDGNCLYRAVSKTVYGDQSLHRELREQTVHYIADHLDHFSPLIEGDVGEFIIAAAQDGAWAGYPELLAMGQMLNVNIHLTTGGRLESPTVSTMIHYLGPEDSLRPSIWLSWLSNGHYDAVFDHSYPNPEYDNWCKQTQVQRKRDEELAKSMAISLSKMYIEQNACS

[3] = target: T3, SFB-tagged MYSM1 (human) (UniProt Q5VVJ2)
T3 sequence: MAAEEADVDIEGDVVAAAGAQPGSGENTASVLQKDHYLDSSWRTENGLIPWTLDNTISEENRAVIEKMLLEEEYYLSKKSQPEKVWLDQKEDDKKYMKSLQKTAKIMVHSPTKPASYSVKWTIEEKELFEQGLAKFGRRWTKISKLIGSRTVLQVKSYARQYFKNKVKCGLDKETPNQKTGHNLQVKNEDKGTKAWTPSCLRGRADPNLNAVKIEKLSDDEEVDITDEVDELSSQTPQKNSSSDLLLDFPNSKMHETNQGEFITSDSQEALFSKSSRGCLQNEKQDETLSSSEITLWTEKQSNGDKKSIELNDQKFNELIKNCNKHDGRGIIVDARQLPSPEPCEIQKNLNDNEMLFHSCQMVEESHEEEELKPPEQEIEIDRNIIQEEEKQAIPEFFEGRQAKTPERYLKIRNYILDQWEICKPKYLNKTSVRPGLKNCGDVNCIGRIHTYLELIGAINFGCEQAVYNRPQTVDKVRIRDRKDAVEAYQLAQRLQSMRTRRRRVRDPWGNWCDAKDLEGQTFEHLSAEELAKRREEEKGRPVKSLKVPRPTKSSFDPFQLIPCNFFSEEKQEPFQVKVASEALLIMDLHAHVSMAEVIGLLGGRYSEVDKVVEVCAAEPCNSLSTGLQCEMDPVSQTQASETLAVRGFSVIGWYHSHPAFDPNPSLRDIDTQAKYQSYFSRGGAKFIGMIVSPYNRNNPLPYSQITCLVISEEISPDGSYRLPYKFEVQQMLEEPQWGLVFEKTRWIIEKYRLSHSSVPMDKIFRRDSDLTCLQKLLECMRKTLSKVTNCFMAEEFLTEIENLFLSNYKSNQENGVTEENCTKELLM

[4] = target: SFB-tagged USP6 (human) (UniProt P35125)
[5] = target: T4, SFB-tagged OTUD6A^ΔOTU (OTU-domain-deleted, aa 1-140 & 276-288) (human) (UniProt Q7L8S5)
T4 sequence: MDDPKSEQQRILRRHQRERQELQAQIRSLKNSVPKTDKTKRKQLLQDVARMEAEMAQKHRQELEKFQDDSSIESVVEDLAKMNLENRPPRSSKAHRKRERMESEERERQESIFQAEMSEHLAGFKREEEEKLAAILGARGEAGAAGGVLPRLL

B1: MYC-tagged Aurora kinase A, full-length wild type (aa 1-403) (protein, UniProt O14965 1-403)
chain: MDRSKENCISGPVKATAPVGGPKRVLVTQQFPCQNPLPVNSGQAQRVLCPSNSSQRIPLQAQKLVSSHKPVQNQKQKQLQATSVPHPVSRPLNNTQKSKQPLPSAPENNPEEELASKQKNEESKKRQWALEDFEIGRPLGKGKFGNVYLAREKQSKFILALKVLFKAQLEKAGVEHQLRREVEIQSHLRHPNILRLYGYFHDATRVYLILEYAPLGTVYRELQKLSKFDEQRTATYITELANALSYCHSKRVIHRDIKPENLLLGSAGELKIADFGWSVHAPSSRRTTLCGTLDYLPPEMIEGRMHDEKVDLWSLGVLCYEFLVGKPPFEANTYQETYKRISRVEFTFPDFVTEGARDLISRLLKHNPSQRPMLREVLEHPWITANSSKPSNCQNKESASKQS
- binding [1]: binds
- binding [2]: binds
- binding [3]: binds
- binding [4]: binds
- binding [5]: no binding
